Assay results published in paper PMC10058229, “Diverse cytomotive actins and tubulins share a polymerization switch mechanism conferring robust dynamics” (Science Advances, 2023).
No constants are given. Whether binding was seen depends on the method and setting. Some entries that bind do so weakly or less than the wild type.

Amino acid sequences for entries named in this document (tags omitted). A change or cut given only in a name is not applied to a line headed by its entry.
UniProt Q8GCC5: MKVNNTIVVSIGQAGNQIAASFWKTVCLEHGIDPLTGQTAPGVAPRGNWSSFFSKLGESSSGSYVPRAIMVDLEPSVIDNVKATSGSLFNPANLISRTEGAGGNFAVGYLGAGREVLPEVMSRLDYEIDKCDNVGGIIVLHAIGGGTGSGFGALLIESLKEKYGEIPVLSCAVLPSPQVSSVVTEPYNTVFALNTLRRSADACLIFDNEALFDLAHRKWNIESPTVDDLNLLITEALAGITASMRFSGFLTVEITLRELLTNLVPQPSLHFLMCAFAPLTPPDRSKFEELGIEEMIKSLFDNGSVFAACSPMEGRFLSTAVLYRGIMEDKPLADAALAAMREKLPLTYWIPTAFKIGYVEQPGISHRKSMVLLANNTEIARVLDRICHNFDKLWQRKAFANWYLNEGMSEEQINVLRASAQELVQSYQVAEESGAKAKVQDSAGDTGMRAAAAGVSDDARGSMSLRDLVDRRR
UniProt Q8GCC1: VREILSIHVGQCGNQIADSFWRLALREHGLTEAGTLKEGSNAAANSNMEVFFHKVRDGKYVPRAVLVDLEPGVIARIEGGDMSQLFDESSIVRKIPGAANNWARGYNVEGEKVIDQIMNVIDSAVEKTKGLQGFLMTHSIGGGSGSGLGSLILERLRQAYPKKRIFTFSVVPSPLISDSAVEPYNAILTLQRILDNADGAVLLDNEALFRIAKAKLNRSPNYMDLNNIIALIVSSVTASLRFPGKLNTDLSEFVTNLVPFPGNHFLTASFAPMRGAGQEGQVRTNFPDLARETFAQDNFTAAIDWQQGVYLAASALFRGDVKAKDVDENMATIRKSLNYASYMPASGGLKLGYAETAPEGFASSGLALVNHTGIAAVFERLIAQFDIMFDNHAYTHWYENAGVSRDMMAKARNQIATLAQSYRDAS

Molecular target: P. dejongeii BtubAB heterodimer (wild type) (P. dejongeii) (UniProt Q8GCC5+Q8GCC1)
Assay: negative-stain electron microscopy; micrographs of negatively stained polymers of WT BtubAB and of BtubA*B; both purified

binding: binds
Substance: P. dejongeii BtubAB heterodimer (wild type) (from UniProt Q8GCC5 1-473; Q8GCC1 1-426) (complex)
